This is an account of results in publication PMC10623882.

No constants are given. Whether binding was seen depends on the method and setting. In cells and extracts the contact can be indirect. Some binding calls cover weakened binding; strength is not graded here.

The test has as its target p65 (RelA) (human (endogenous in MDA-MB-231)), Q04206. In words: co-IP; lysate of mammospheres derived from MDA-MB-231 cells incubated with RelB antibody or corresponding IgG, Protein A/G-agarose, immunoprecipitates blotted with p65 or p50; also the IP of p65. The following applies: remark: other sources report otherwise.

B1: RelB, Q01201 1-579 (protein)
chain: MLRSGPASGPSVPTGRAMPSRRVARPPAAPELGALGSPDLSSLSLAVSRSTDELEIIDEYIKENGFGLDGGQPGPGEGLPRLVSRGAASLSTVTLGPVAPPATPPPWGCPLGRLVSPAPGPGPQPHLVITEQPKQRGMRFRYECEGRSAGSILGESSTEASKTLPAIELRDCGGLREVEVTACLVWKDWPHRVHPHSLVGKDCTDGICRVRLRPHVSPRHSFNNLGIQCVRKKEIEAAIERKIQLGIDPYNAGSLKNHQEVDMNVVRICFQASYRDQQGQMRRMDPVLSEPVYDKKSTNTSELRICRINKESGPCTGGEELYLLCDKVQKEDISVVFSRASWEGRADFSQADVHRQIAIVFKTPPYEDLEIVEPVTVNVFLQRLTDGVCSEPLPFTYLPRDHDSYGVDKKRKRGMPDVLGELNSSDPHGIESKRRKKKPAILDHFLPNHGSGPFLPPSALLPDPDFFSGTVSLPGLEPPGGPDLLDDGFAYDPTAPTLFTMLDLLPPAPPHASAVVCSGGAGAVVGETPGPEPLTLDSYQAPGPGDGGTASLVGSNMFPNHYREAAFGGGLLSPGPEAT
For B1, the binding entry was “binds”.
